Assay results from US6495314B1 (The Scripps Research Institute, priority 1995, dated 2002).
HELM strings list residues between dots; [ac] is acetyl, [am] amide, other brackets name non-standard units.

Assay: general procedure: Boc solid-phase peptide synthesis; Boc-Arg(Tos)-OCH2-Pam resin; HBTU (in situ neutralization)
Settings: whole synthesis, scale 0.12 mmol

Question: Which isolated yield (calculated from the original loading of the resin) does the source give for “PEPTIDE1{A.E.Y.V.R.A.L.F.D.F.N.G.N.D.E.E.D.L.P.F.K.K.G.D.I.L.R.I.R.D.K.P.E.E.Q.W.W.N.A.E.D.S.E.G.K.R.G.M.I.P.V.P.Y.V.E.K.Y.R}$$$$V2.0” here?
Answer: 23%

Question: And the crude mass?
Answer: 195 mg
